One may read the viability as a read-out of living cells in per cent, often relative to untreated cells.

This is an account of results in PubChem BioAssay AID1956 (SRMLSC, 2009).

The other results are listed elsewhere or left out.

The nature of this assay: compounds boosting herpes simplex virus growth – fold increase, host cell viability (AID 1956). Note: tested in PC3 cells. As to conditions: HSV replication augmentation in cells; fold increase: measured here: primary screen fold increase 10 uM, at 10 µM, stronger effect = higher value; viability: measured here: host cell viability series, at 25 µM, stronger effect = lower value.
With `O=P1(Nc2ncccn2)COc2ccccc2OC1`, the fold increase was 0.73. `CN1CCCCC1COC(=O)C1(O)c2ccccc2CCc2ccccc21` (stereo not drawn): the fold increase was 0.79.

Consider `COc1ccccc1OP(C)(=O)Nc1c(C)cccc1C` (stereo not drawn), for which the fold increase turned out to be 1.16. Turning to `O=P1(Nc2ccc(Br)cn2)COc2ccccc2OC1`, the fold increase came out at 0.87.

Consider `Cc1ccc(OCC(=O)OC2CN3CCC2CC3)cc1` (stereo not drawn), for which the fold increase was determined as 0.947.

As for `O=[As](O)(c1cccs1)c1cccs1`, the fold increase stood at 1.09. For `CP(=O)(Nc1ccc(SC(F)(F)F)cc1)Oc1ccccc1` (stereo not drawn), the fold increase came out at 0.97. Take `CCCOc1ccc(NP(C)(=O)Oc2ccc(Cl)cc2)cc1` (stereo not drawn): the fold increase came to 0.89. Same read-out and setting: then `COc1cc(C2NCCC3(OCCO3)C2(C)C)cc(OC)c1OC.O=[N+]([O-])c1cc([N+](=O)[O-])c(O)c([N+](=O)[O-])c1` (stereo not drawn), with 0.95; and `CC1CCC(C(C)C)C(OP(=O)(Nc2ccccn2)c2ccccc2)C1` (stereo not drawn), with 0.92; and `Cc1nn(-c2ccccc2)c2c1P(=O)(N1CCOCC1)N(C)C(c1ccccc1)=N2` (stereo not drawn), with 1.12. `O=C(/C=C/c1ccccc1)OC1CN2CCC1CC2` (stereo not drawn): the fold increase amounted to 1.01. As to `CCOC(=O)C(CC)C1=NC(C)(C)Cc2ccccc21.O=[N+]([O-])c1cc([N+](=O)[O-])c(O)c([N+](=O)[O-])c1` (stereo not drawn), the fold increase stood at 0.85. As to `O=[N+]([O-])c1cc([N+](=O)[O-])c(Nc2nnnn2CCO)c([N+](=O)[O-])c1`, the fold increase came out at 0.93. The same measure, in the same setting: then `CN(C)C1(CNC(=O)c2ccc(S(C)(=O)=O)cc2)CCCCC1`, with 0.99. Same read-out and setting: then `CC1(CBr)Cn2c(nc3ccccc3c2=O)S1` (stereo not drawn), with 0.93; and `Cc1nc2ccc3ccccc3c2s1.O=[N+]([O-])c1cc([N+](=O)[O-])c(O)c([N+](=O)[O-])c1`, with 0.93; and `O=[As](O)(c1ccccc1Br)c1ccccc1Br`, with 1.12. On the same count and under the same terms, then `CN(C(=O)Cc1ccc(Cl)c(Cl)c1)[C@@H]1CCCC[C@H]1N1CCCC1`, with 1.06.

For `CC(C)/C=N\N=C(\N)N[N+](=O)[O-]`, the fold increase was 0.92. The same measure, in the same setting: then `CN(CCCl)Cc1cc(Cl)c(NC2=NCCN2)c(Cl)c1`, with 0.75; and `CCOP(=O)(Nc1ccc(C)cn1)OCC`, with 0.99. On to `O=[N+]([O-])c1cc([N+](=O)[O-])c(-n2nnc3ccccc32)c([N+](=O)[O-])c1`, for which the fold increase came out at 0.96. Consider `O=P1(Nc2ccccn2)COc2ccccc2OC1`, for which the fold increase worked out at 0.88. Consider `CC(C)(C)C(=O)NC(Sc1ncccn1)C(Cl)(Cl)Cl` (stereo not drawn), for which the fold increase is 1.11. Still for that read-out and setting: then `Clc1n[nH]nc1-c1nn[nH][15n]1`, with 0.78; and `CCCOP(=S)(Nc1nc(N)cc(=O)[nH]1)OCCC`, with 0.93; and `Cc1ccc(C)c(NP(C)(=O)Oc2ccccc2)c1` (stereo not drawn), with 0.95.

As for `Cc1ccc(NCCc2c([N+](=O)[O-])cc([N+](=O)[O-])cc2[N+](=O)[O-])cc1`, the fold increase was 0.77. As for `CP(=O)(Nc1cccc(Br)c1)Oc1ccccc1` (stereo not drawn), the fold increase is 0.97. With `Cc1cc(C)cc(OP(C)(=O)Nc2ccccn2)c1` (stereo not drawn), the fold increase is 0.69. Consider `CCOP(=O)(Nc1cccc2ccccc12)OCC`, for which the fold increase worked out at 1.03. On the same count and under the same terms, then `COc1ccccc1OP(C)(=O)Nc1cccc(Br)c1` (stereo not drawn), with 0.98; and `COc1cc(C(=O)NCC2(N3CCOCC3)CCCCC2)cc(Cl)c1OC(C)C`, with 0.88; and `O=[As](O)(O)c1cccnc1`, with 1.02.

Consider `O=C(OC1CN2CCC1CC2)c1ccc(Cl)cc1` (stereo not drawn), for which the fold increase amounted to 1.02.

As for `CCOC(=O)c1ccc(NP(C)(=O)Oc2cc(C)cc(C)c2)cc1` (stereo not drawn), the fold increase is 0.76.

Turning to `Cc1cc(C)cc(OP(C)(=O)Nc2ccc(C)cc2C)c1` (stereo not drawn), the fold increase came out at 0.8. Take `O=[As](O)(c1cccc(O)c1)c1cccc(O)c1`: the fold increase was found to be 1.04. With `Cc1cccc(OCC(=O)OC2CN3CCC2CC3)c1` (stereo not drawn), the fold increase amounted to 1.01. In the case of `NC(=O)Nc1ccc([As](=O)(O)O)cc1`, the fold increase stood at 0.91. Same read-out and setting: then `CN(C(=O)Cc1ccc(Cl)c(Cl)c1)[C@H]1CC[C@@]2(CCCO2)C[C@@H]1N1CCCC1`, with 0.83; and `CC1=NCCc2c1[nH]c1ccccc21.O=[N+]([O-])c1cc([N+](=O)[O-])c(O)c([N+](=O)[O-])c1`, with 1.05. Turning to `O=[N+]([O-])c1ccc2c(c1)nnn2O`, the fold increase is 1.01. For the molecule `CCOP1(=S)c2c(C)nn(CCC#N)c2N=C(c2ccc(F)cc2)N1C` (stereo not drawn), the fold increase was 0.73. Still for that read-out and setting: then `CN(C(=O)Cc1ccccc1)[C@@H]1CC[C@]2(CCCO2)C[C@H]1N1CCCC1`, with 0.81. Turning to `CS(=O)(=O)c1cc([N+](=O)[O-])c2no[n+]([O-])c2c1`, the fold increase was 1.06.

For the molecule `O=P(Nc1nccs1)(c1ccccc1)c1nc2ccccc2s1` (stereo not drawn), the fold increase is 1.06.

`O=P(Nc1nccs1)(Oc1ccccc1)Oc1ccccc1`: the fold increase is 1.03. Same read-out and setting: then `O=C(O)c1cccc(Nc2c([N+](=O)[O-])cc([N+](=O)[O-])cc2[N+](=O)[O-])c1`, with 0.94; and `CCOP1(=S)c2c(C)nn(CCC#N)c2N=C(c2ccccc2F)N1C` (stereo not drawn), with 0.84. On to `O=C(O)COc1ccc([As](=O)(O)O)cc1[N+](=O)[O-]`, for which the fold increase is 1.

In the case of `Nc1ccccc1[As](=O)(O)c1ccccc1`, the fold increase was 1.06.

On to `CC(C)c1ccc(OP(=O)(Nc2ccccn2)Oc2ccccc2F)cc1` (stereo not drawn), for which the fold increase is 0.98. In the case of `COc1ccccc1OP(C)(=O)Nc1ccc(C)cc1` (stereo not drawn), the fold increase was determined as 0.97. With `ClCCSc1nnc(-c2cccnc2)o1`, the fold increase came out at 0.89.

In the case of `CCOC(=O)c1ccc(NP(C)(=O)Oc2ccccc2)cc1` (stereo not drawn), the fold increase came to 0.92.

Consider `Cc1cc(C)cc(OP(C)(N)=O)c1` (stereo not drawn), for which the fold increase was 1.12. Same read-out and setting: then `O=[N+]([O-])c1cc([N+](=O)[O-])c(-c2ccn[nH]2)s1`, with 0.71. Take `CCN(CC)C(=S)SC(NC=O)C(Cl)(Cl)Cl` (stereo not drawn): the fold increase amounted to 0.93.

Turning to `CC(C)NC(=O)NP(=O)(Oc1ccccc1)Oc1ccccc1`, the fold increase was found to be 0.95. Still for that read-out and setting: under `COc1ccccc1OP(C)(=O)Nc1cc(Cl)ccc1C` (stereo not drawn) stands 0.98; under `C[As](=O)(O)c1cccc(C(=O)O)c1`, 0.95.

Consider `O=[As](O)(c1ccc(O)cc1)c1ccccc1O`, for which the fold increase was found to be 1.18. The same measure, in the same setting: then `Cc1ccc2nc3c(c(C)c2c1)CC(C(Cl)Cl)S3` (stereo not drawn), with 1.01; and `O=[N+]([O-])c1ccc2c(c1)C=Nc1ccccc1O2`, with 0.8.

On to `Cc1cccc(C)c1OP(C)(N)=O` (stereo not drawn), for which the fold increase is 0.99. Same read-out and setting: then `CC(C)(C)c1ccc(OP(C)(=O)Nc2ccc(SC(F)(F)F)cc2)cc1` (stereo not drawn), with 0.82. Same read-out and setting: under `Cc1ccc(OP(=O)(Nc2ccc([N+](=O)[O-])cn2)Oc2ccc(C)cc2)cc1` stands 0.93.

`COc1ccc(N/C(=N/P(=O)(N2CCOCC2)N2CCOCC2)N2CCOCC2)cc1`: the fold increase was determined as 0.96. On to `Cc1cc(=O)[nH]c(N[N+](=O)[O-])n1`, for which the fold increase was 0.88. Consider `CCN(CC)CCCOC(=O)C(O)(c1ccccc1)c1ccccc1`, for which the fold increase amounted to 0.9.

On to `O=C(OC1CN2CCC1CC2)C12CC3CC(CC(C3)C1)C2` (stereo not drawn), for which the fold increase is 0.93. Take `Cc1c2c(nc3ccccc13)SC(C(Cl)Cl)C2` (stereo not drawn): the fold increase stood at 0.9. Consider `COc1cc(I)ccc1[As](=O)(O)O`, for which the fold increase was 1.15.

For `COc1ccc2nc(NP(=O)(c3ccccc3)c3ccccc3)sc2c1`, the fold increase amounted to 0.98.

With `CCOC(=O)c1ccc(NC(=O)C(C)(CCl)SC)cc1` (stereo not drawn), the fold increase is 1.1.

Regarding `CCOC(=O)c1ccc(NP(C)(=O)Oc2ccc(OC)cc2)cc1` (stereo not drawn), the fold increase came out at 1.12. The same measure, in the same setting: under `CCOP(C)(=S)SCC(=O)NC(C)C(=O)O` (stereo not drawn) stands 1.03. Still for that read-out and setting: under `CP(=O)(Nc1ccccn1)Oc1ccc(Cl)cc1` (stereo not drawn) stands 0.85; under `CCC(C)N(CC(C)C)C(=S)SC(NC(C)=O)C(Cl)(Cl)Cl` (stereo not drawn), 0.86; under `CP(=O)(Oc1ccccc1)OC(c1ccccc1)C(F)(F)F` (stereo not drawn), 0.86. Take `CP(=O)(Nc1ccc(SC(F)(F)F)cc1)Oc1ccc(Cl)cc1` (stereo not drawn): the fold increase worked out at 0.96.

As for `Cc1cccc(C)c1OP(C)(=O)Nc1ccc(SC(F)(F)F)cc1` (stereo not drawn), the fold increase was found to be 1.15. As for `COP1(=S)c2c(C)nn(CCC#N)c2N=C(c2ccc(F)cc2)N1C` (stereo not drawn), the fold increase came to 1. Same read-out and setting: then `Cc1cc(C)cc(OP(C)(=O)Nc2ccc(SC(F)(F)F)cc2)c1` (stereo not drawn), with 1; and `CCc1ccc(OP(C)(=O)N2CCN(c3ccc([N+](=O)[O-])cc3)CC2)cc1` (stereo not drawn), with 1.11; and `CP(=O)(NC(=O)Nc1ccccc1)Oc1ccccc1` (stereo not drawn), with 1.02. Consider `CCOC(=O)Nc1cccc([As](=O)(O)O)c1`, for which the fold increase came out at 1.12. Same read-out and setting: under `CP(=S)(Nn1cnnc1)Oc1ccccc1` (stereo not drawn) stands 1.05.

With `O=[N+]([O-])c1ccc(Nc2ccc(Oc3ccc([N+](=O)[O-])cc3[N+](=O)[O-])cc2)c([N+](=O)[O-])c1`, the fold increase was 1.14. For `CP(=O)(Nc1ccccc1Br)Oc1ccccc1` (stereo not drawn), the fold increase was 0.97.

Regarding `COc1ccccc1OP(C)(=O)Nc1ccccc1` (stereo not drawn), the fold increase came to 0.98. Same read-out and setting: under `Cc1cc(SC(NC=O)C(Cl)(Cl)Cl)ncn1` (stereo not drawn) stands 0.98; under `O=P(Nc1ccccn1)(c1cccc2ccccc12)c1cccc2ccccc12`, 0.97; under `CCOC(=O)Nc1ccc([As](=O)(O)O)c(O)c1`, 0.99. Take `Cc1cc(SC(NC(=O)c2ccccc2)C(Cl)(Cl)Cl)nc(C(C)C)n1` (stereo not drawn): the fold increase was 1.34 and the viability turned out to be 103%. On to `CC(C)(C)C(=O)NC(Sc1ccncn1)C(Cl)(Cl)Cl` (stereo not drawn), for which the fold increase amounted to 0.94.

For the molecule `O=[N+]([O-])c1ncn(CCn2ncnc2[N+](=O)[O-])n1`, the fold increase was determined as 0.92. Still for that read-out and setting: then `O=[N+]([O-])c1cccc(NC2=NCC(CBr)S2)c1` (stereo not drawn), with 1.05. Regarding `O=C(O)CNc1ccc([As](=O)(O)O)cc1`, the fold increase stood at 0.99. With `O=C(Nc1cc([As](=O)(O)O)ccc1O)c1ccccc1`, the fold increase came to 0.89. Still for that read-out and setting: then `CCOC(=O)c1ccc(NP(C)(=O)Oc2ccc(Cl)cc2)cc1` (stereo not drawn), with 0.87; and `CP(=O)(OC12CC3CC(CC(C3)C1)C2)OC12CC3CC(CC(C3)C1)C2`, with 0.94; and `C[N+]1=C2C=CC=CC=C2SC12C([N+](=O)[O-])=CC([N+](=O)[O-])=C[C-]2[N+](=O)[O-]` (stereo not drawn), with 0.56. Still for that read-out and setting: under `Nc1ccc([As](=O)(O)c2ccc(N)cc2)cc1` stands 1.09. The same measure, in the same setting: then `CC(C)(C)c1ccc(OP(C)(=O)O)cc1`, with 1.01; and `COc1ccccc1OP(C)(=O)Nc1ccccc1Br` (stereo not drawn), with 0.87. Turning to `CP(=O)(Nc1ccc(Cl)cc1)Oc1ccc(F)cc1` (stereo not drawn), the fold increase came out at 0.99. On to `CCN(/C(=N/P(=O)(N1CCOCC1)N1CCOCC1)N1CCOCC1)c1ccc(OC)cc1`, for which the fold increase was 1.01. The same measure, in the same setting: then `CN(C)C(=O)OCCc1n(C)cc[n+]1C`, with 0.87; and `CC(C)=N/N=C(\N)N[N+](=O)[O-]`, with 0.95.

Turning to `CN(C)C(=O)c1c([N+](=O)[O-])cc([N+](=O)[O-])cc1[N+](=O)[O-]`, the fold increase was 0.66. Same read-out and setting: under `CC1CCN(C(=O)Oc2c(Cl)cc(Cl)c3cccnc23)CC1` stands 0.95. Take `COc1ccc(OP(C)(=O)Nc2ccc(Br)cc2)cc1` (stereo not drawn): the fold increase worked out at 0.93. Consider `COc1ccc(C2=NCC(CBr)S2)cc1` (stereo not drawn), for which the fold increase is 1.02. On the same count and under the same terms, then `CCN(CC)CC(O)COC(=O)C(O)(c1ccccc1)C1CCCCC1` (stereo not drawn), with 0.9.
